The target of test [1] is β-catenin (human (endogenous in colon and breast cancer cell lines)) (UniProt P35222). Briefly: co-IP; breast cancer cells (lines as indicated in Figure 5c); 400 µg cell lysate precleared with protein A/G agarose, 3 to 4 µg primary antibody or normal IgG overnight at 4 °C, protein A/G agarose 3 h, washed thrice with cell lysis buffer, Western blot.
The target is the same in test [2]. As to the kind of experiment: co-IP; colon cancer cells (lines as indicated in Figure 5c); 400 µg cell lysate precleared with protein A/G agarose, 3 to 4 µg primary antibody or normal IgG overnight at 4 °C, protein A/G agarose 3 h, washed thrice with cell lysis buffer, Western blot.

Chains of the proteins cited; added tags and fusions are not shown.
UniProt P35222: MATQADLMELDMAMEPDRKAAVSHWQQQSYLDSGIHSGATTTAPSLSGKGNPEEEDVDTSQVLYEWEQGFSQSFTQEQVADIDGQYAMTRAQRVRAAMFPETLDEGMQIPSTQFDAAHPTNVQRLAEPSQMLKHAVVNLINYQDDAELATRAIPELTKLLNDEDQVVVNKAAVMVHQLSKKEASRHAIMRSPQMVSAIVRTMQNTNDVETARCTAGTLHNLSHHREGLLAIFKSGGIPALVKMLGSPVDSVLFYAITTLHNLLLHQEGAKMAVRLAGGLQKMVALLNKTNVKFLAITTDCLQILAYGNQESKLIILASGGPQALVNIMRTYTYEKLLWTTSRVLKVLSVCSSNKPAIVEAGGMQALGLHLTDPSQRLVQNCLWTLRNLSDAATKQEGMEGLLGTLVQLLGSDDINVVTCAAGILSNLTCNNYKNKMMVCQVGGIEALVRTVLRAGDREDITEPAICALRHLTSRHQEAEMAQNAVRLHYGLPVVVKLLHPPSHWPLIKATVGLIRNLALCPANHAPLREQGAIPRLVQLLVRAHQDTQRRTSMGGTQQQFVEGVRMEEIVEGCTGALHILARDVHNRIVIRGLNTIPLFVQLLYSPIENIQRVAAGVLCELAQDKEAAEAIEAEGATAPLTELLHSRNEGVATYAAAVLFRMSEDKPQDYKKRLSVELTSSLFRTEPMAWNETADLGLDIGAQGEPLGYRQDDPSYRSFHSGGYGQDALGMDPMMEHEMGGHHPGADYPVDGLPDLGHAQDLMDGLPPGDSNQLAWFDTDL
UniProt P08727: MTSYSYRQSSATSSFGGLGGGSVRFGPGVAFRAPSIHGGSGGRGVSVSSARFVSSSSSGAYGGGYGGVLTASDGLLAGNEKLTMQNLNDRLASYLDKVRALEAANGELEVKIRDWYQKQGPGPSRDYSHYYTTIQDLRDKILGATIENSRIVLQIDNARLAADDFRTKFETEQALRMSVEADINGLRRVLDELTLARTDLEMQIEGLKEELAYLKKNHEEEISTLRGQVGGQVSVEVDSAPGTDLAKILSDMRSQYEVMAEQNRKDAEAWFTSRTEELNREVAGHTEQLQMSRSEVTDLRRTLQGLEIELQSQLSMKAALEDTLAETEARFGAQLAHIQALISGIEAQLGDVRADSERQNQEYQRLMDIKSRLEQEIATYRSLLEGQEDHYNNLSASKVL

These are yes or no findings as the source states them, for the method shown. Binding seen in cells or lysates may run through a third protein. Some binding calls cover weakened binding; strength is not graded here.

As to Keratin 19 (from UniProt P08727 1-400), the binding result in test [1] and in test [2] was “binds” throughout.

These data come from paper PMC6357186.
